# Assay results published in the supplement of paper PMC11542785.
# Where a name gives a salt, the structure may show the parent alone. ± gives the standard deviation of the averaged measurements. This is one part of the list. Many values rest on one well or one pass, so single values are uncertain.
# System: Drosophila melanogaster DPAGT1 (Alg7) RNAi eye model
# Assay: eye size Z-score vs DMSO-treated DPAGT1 model flies; higher = larger eye (suppression of DPAGT1 phenotype)
# Conditions: 5 uM
Compound,eye size Z-score,eye size Z-score (female)
CCC(=O)O[C@@H](O[P@](=O)(CCCCc1ccccc1)CC(=O)N1C[C@H](C2CCCCC2)C[C@H]1C(=O)O)C(C)C [Fosinopril],-0.17,
CC1(C)S[C@@H]2[C@H](NC(=O)[C@H](N)c3ccc(O)cc3)C(=O)N2[C@H]1C(=O)O [Amoxicillin],,0.9
Nc1nc(Cl)nc2c1ncn2[C@H]1C[C@H](O)[C@@H](CO)O1 [Cladribine],0.3,
CN[C@@H]1[C@H](O[C@H]2[C@H](O[C@H]3[C@H](O)[C@@H](O)[C@H](N=C(N)N)[C@@H](O)[C@@H]3N=C(N)N)O[C@@H](C)[C@]2(O)C=O)O[C@@H](CO)[C@H](O)[C@H]1O [Streptomycin sulfate],0.39,
CCCCCCC[N+](CC)(CC)CCCCc1ccc(Cl)cc1 [Clofilium tosylate],-0.4,
CCOC(=O)C1=C[C@@H](OC(CC)CC)[C@H](NC(C)=O)[C@@H](N)C1 [Oseltamivir phosphate],0.65,
CNCCCC1c2ccccc2C=Cc2ccccc21 [Protriptyline hydrochloride],-0.56,
C[C@]12CCC(=O)C=C1CC[C@@H]1[C@@H]2[C@@H](O)C[C@@]2(C)[C@H]1CC[C@]2(O)C(=O)CO [Hydrocortisone],,-0.04
Oc1ncnc2[nH]ncc12 [Allopurinol],-0.2 ± 0.89,
CO/N=C(\C(=O)N[C@@H]1C(=O)N2C(C(=O)OCOC(=O)C(C)(C)C)=C(/C=C\c3scnc3C)CS[C@H]12)c1csc(N)n1 [Cefditoren Pivoxil],1.2,
COc1ccc(CCN(C)CCCC(C#N)(c2ccc(OC)c(OC)c2)C(C)C)cc1OC (stereo not given) [Verapamil hydrochloride],0.01,
CC[N+]1(CC)CCC(=C(c2ccccc2)c2ccccc2)C1C (stereo not given) [Prifinium Bromide],0.7,
Cc1onc(-c2ccccc2)c1-c1ccc(S(N)(=O)=O)cc1 [Valdecoxib],-0.28,
CCCc1cc(=O)[nH]c(=S)[nH]1 [Propylthiouracil],2.04,
C[N+]1(CCCCC[N+]2(C)CCCC2)CCCC1 [Pentolinium bitartrate],1.27,
CCCCN(CCCC)CCC(O)c1cc2c(Cl)cc(Cl)cc2c2cc(C(F)(F)F)ccc12 (stereo not given) [Halofantrine hydrochloride],-0.08,
C#C[C@]1(O)CC[C@H]2[C@@H]3CCc4cc(O)ccc4[C@H]3CC[C@@]21C [Ethinylestradiol],0.4,
CCOC(=O)C1=C(C)NC(C)=C(C(=O)OCC)C1c1ccccc1/C=C/C(=O)OC(C)(C)C [Lacidipine],0.08,
CCOc1cc(CC(=O)N[C@@H](CC(C)C)c2ccccc2N2CCCCC2)ccc1C(=O)O [Repaglinide],-1.02,
COc1ncnc(NS(=O)(=O)c2ccc(N)cc2)c1OC [Sulfadoxine],-0.98,
CC(=O)OCC(=O)[C@@]1(O)[C@H](C)C[C@H]2[C@@H]3CCC4=CC(=O)C=C[C@]4(C)[C@@]3(F)[C@@H](O)C[C@@]21C [Dexamethasone acetate],0.28,
O=C(Oc1ccccc1)c1ccccc1O [Phenyl salicylate],0.69,
COc1c(N2C[C@@H]3CCCN[C@@H]3C2)c(F)cc2c(=O)c(C(=O)O)cn(C3CC3)c12 [Moxifloxacin],0.07,
COc1ccc(C(=O)c2ccccc2)c(O)c1 [Oxybenzone],0.15,

# Sorted by SMILES length (low to high): 3 of the compounds above
Compound,eye size Z-score,eye size Z-score (female)
Oc1ncnc2[nH]ncc12 [Allopurinol],-0.2 ± 0.89,
CCCCCCC[N+](CC)(CC)CCCCc1ccc(Cl)cc1 [Clofilium tosylate],-0.4,
Nc1nc(Cl)nc2c1ncn2[C@H]1C[C@H](O)[C@@H](CO)O1 [Cladribine],0.3,

# More entries follow:

Compound,eye size Z-score,eye size Z-score (female)
CCCCOC(=O)c1ccccc1Nc1cccc(C(F)(F)F)c1 [Ufenamate],0.7,
COc1ccc(C(=O)CC(=O)c2ccc(C(C)(C)C)cc2)cc1 [Avobenzone],-0.14,
Nc1nc2c(ncn2COCCO)c(=O)[nH]1 [Acyclovir],0.48,
CCCCCN(CCCCC)C(=O)C(CCC(=O)O)NC(=O)c1ccc(Cl)c(Cl)c1 (stereo not given) [Lorglumide sodium salt],0.13,
CC(C)(C)NC(=O)[C@@H]1C[C@@H]2CCCC[C@@H]2CN1C[C@@H](O)[C@H](Cc1ccccc1)NC(=O)[C@H](CC(N)=O)NC(=O)c1ccc2ccccc2n1 [Saquinavir mesylate],-0.82,
CCCC1O[C@@H]2C[C@H]3[C@@H]4CCC5=CC(=O)C=C[C@]5(C)[C@H]4[C@@H](O)C[C@]3(C)[C@]2(C(=O)CO)O1 (stereo not given in full) [Budesonide],-0.06,
CC(C)Cc1ccc(C(C)C(=O)OCc2ccccn2)cc1 (stereo not given) [Ibuprofen Piconol],-0.13,
CC(C(=O)O)c1cccc(C(=O)c2ccccc2)c1 (stereo not given) [Ketoprofen],,0.37
CC(C)(C)C(=O)C(Oc1ccc(Cl)cc1)n1ccnc1 (stereo not given) [Climbazole],-0.48,
Cc1ccccc1OCC(O)CO (stereo not given) [Mephenesin],0.02,
O=C1CN(/N=C/c2ccc([N+](=O)[O-])o2)C(=O)N1 [Nitrofurantoin],0.63,
C[C@H](N)[C@H](O)c1cccc(O)c1 [Metaraminol bitartrate],-0.34,
CCN(CC)CCOC(=O)C(Cc1cccc2ccccc12)CC1CCCO1 (stereo not given) [Nafronyl oxalate],0.27,
CC1(C)S[C@@H]2[C@H](NC(=O)C(C(=O)O)c3ccccc3)C(=O)N2[C@H]1C(=O)O (stereo not given in full) [Carbenicillin disodium salt],1.21,
O=C1CN(/N=C/c2ccc(-c3ccc([N+](=O)[O-])cc3)o2)C(=O)N1 [Dantrolene sodium salt],0.81,
CCOC(=O)n1ccn(C)c1=S [Carbimazole],-0.21,
O=C(O)c1ccccc1Nc1cc(Cl)ccc1C(=O)O [Lobenzarit disodium],-0.03,
CC1(C)S[C@@H]2[C@H](NC(=O)[C@H](C(=O)O)c3ccsc3)C(=O)N2[C@H]1C(=O)O [Ticarcillin sodium],0.97,
Cc1cc(NS(=O)(=O)c2ccc(N)cc2)no1 [Sulfamethoxazole],-0.67,
CN[C@@H]1[C@@H](O)[C@@H](O[C@@H]2[C@@H](O)[C@H](O[C@H]3OC(CN)=CC[C@H]3N)[C@@H](N)C[C@H]2N)OC[C@]1(C)O [Sisomicin sulfate],0.64,
CC[C@H]1OC(=O)C[C@@H](O)[C@H](C)[C@@H](O[C@@H]2O[C@H](C)[C@@H](O[C@H]3C[C@@](C)(O)[C@@H](O)[C@H](C)O3)[C@H](N(C)C)[C@H]2O)[C@@H](CC=O)C[C@@H](C)C(=O)/C=C/C(C)=C/[C@@H]1CO[C@@H]1O[C@H](C)[C@@H](O)[C@@H](OC)[C@H]1OC [Tylosin],-0.06,
O=C(CCCCCCC(=O)Nc1ccccc1)NO [Vorinostat],-0.97,
COC(=O)C1=C(C)NC(C)=C(C(=O)OC2CCCN(Cc3ccccc3)C2)C1c1cccc([N+](=O)[O-])c1 (stereo not given) [Benidipine hydrochloride],0.37,
CCNC(=O)CCC/C=C\C[C@@H]1[C@@H](/C=C/[C@@H](O)CCc2ccccc2)[C@H](O)C[C@@H]1O [Bimatoprost],0.11,

# 5 successive entries out of the list so far:
Compound,eye size Z-score,eye size Z-score (female)
O=C1CN(/N=C/c2ccc(-c3ccc([N+](=O)[O-])cc3)o2)C(=O)N1 [Dantrolene sodium salt],0.81,
CCOC(=O)n1ccn(C)c1=S [Carbimazole],-0.21,
O=C(O)c1ccccc1Nc1cc(Cl)ccc1C(=O)O [Lobenzarit disodium],-0.03,
CC1(C)S[C@@H]2[C@H](NC(=O)[C@H](C(=O)O)c3ccsc3)C(=O)N2[C@H]1C(=O)O [Ticarcillin sodium],0.97,
Cc1cc(NS(=O)(=O)c2ccc(N)cc2)no1 [Sulfamethoxazole],-0.67,

# Additional records.

Compound,eye size Z-score,eye size Z-score (female)
C[C@]12C[C@H](O)[C@H]3[C@@H](CCC4=CC(=O)CC[C@@]43C)[C@@H]1CC[C@@H]2C(=O)CO [Corticosterone],-0.07,
CC1(C)O[C@@H]2C[C@H]3[C@@H]4CCC5=CC(=O)C=C[C@]5(C)[C@H]4[C@@H](O)C[C@]3(C)[C@]2(C(=O)CO)O1 [Desonide],0.53,
CCN(CC)C(=S)SSC(=S)N(CC)CC [Disulfiram],-0.12,
C/C(=C(\CCOP(=O)(O)O)SC(=O)c1ccccc1)N(C=O)Cc1cnc(C)nc1N [Benfotiamine],0.65,
COc1cc2/c(=N/c3ccc(Br)cc3F)nc[nH]c2cc1OCC1CCN(C)CC1 [Vandetanib],,-0.54
Nc1c2c(nc3ccccc13)CCCC2 [Tacrine hydrochloride],-0.1,
CN1CC(O)C2=C/C(=N/NC(N)=O)C(=O)C=C21 (stereo not given) [Carbazochrome],0.64,
CCN(CC)CCOC(=O)c1ccc(N)cc1 [Procaine hydrochloride],0.89,
CC[C@H](C)C(=O)O[C@H]1C[C@@H](C)C=C2C=C[C@H](C)[C@H](CC[C@@H]3C[C@@H](O)CC(=O)O3)[C@H]21 [Lovastatin],-0.21,
Cc1c(C)c2c(c(C)c1O)CCC(C)(C(=O)O)O2 (stereo not given) [Trolox],0.82,
CC(=O)N[C@@H](CS)C(=O)O [Acetylcysteine],-0.13,
CC(=O)O[C@H]1C[C@@]2(C)[C@@H](C[C@@H](O)[C@H]3[C@@]4(C)CC[C@@H](O)[C@@H](C)[C@@H]4CC[C@@]32C)/C1=C(\CCC=C(C)C)C(=O)O [Fusidic acid sodium salt],-0.28,
CN(C)CCn1nnnc1SCC1=C(C(=O)O)N2C(=O)[C@@H](NC(=O)Cc3csc(N)n3)[C@H]2SC1 [Cefotiam hydrochloride],-0.15,
CNC[C@H](O)[C@@H](O)[C@H](O)[C@H](O)CO [Meglumine],0.16,
NCCCC(O)(P(=O)(O)O)P(=O)(O)O [Alendronate sodium],-1.2,
NC(=O)OCC(COC(N)=O)c1ccccc1 [Felbamate],0.09,
Cc1ccnc(NS(=O)(=O)c2ccc(N)cc2)n1 [Sulfamerazine],0.66,
N=C(N)NCc1cccc(I)c1 [Iobenguane sulfate],-0.15,
CC(C)n1c(/C=C/C(O)CC(O)CC(=O)O)c(-c2ccc(F)cc2)c2ccccc21 (stereo not given) [Fluvastatin sodium salt],-0.7,
CC(C)(C)c1ccc(C(=O)CCCN2CCC(OC(c3ccccc3)c3ccccc3)CC2)cc1 [Ebastine],0.37,
CCCCNc1cc(C(=O)O)cc(S(N)(=O)=O)c1Oc1ccccc1 [Bumetanide],2.04,
CNC(=O)c1c(I)c(C(=O)NCC(=O)Nc2c(I)c(C(=O)O)c(I)c(C(=O)NCCO)c2I)c(I)c(N(C)C(C)=O)c1I [Ioxaglic acid],0.32,
